# Values from PubChem BioAssay AID602196 (INSERM, 2012)
# Screen: 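Modifiers of cisplatin sensitivity in A549 cells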
# Cell system: human A549 lung cancer cells
# Knock-down reagent: siRNA pair against human genes
# Time to read-out: 48 h transfection before cisplatin; time from cisplatin to read-out not stated
# Challenge: cisplatin at a dose killing half of control-siRNA cells; exact dose and duration not given
# Read-out: 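Shift in cisplatin death relative to control siRNA, from -50 (all cells die) to +50 (no cells die); siRNAs harmful on their own scored 0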
# Reading the numbers: two-siRNA summed score (-2 to +2): higher = both siRNAs protect from cisplatin killing; -2 means both sensitise; mean protection from cisplatin (shift in death) and protection from cisplatin (shift in death), siRNA C: higher = protection from cisplatin killing
# Rule for the call: 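siRNAs harmful alone (LDH or WST-1) get 0; others get +1 for less and -1 for more cisplatin killing; genes are active when the two siRNAs give the same sign, summing to ±2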
# Meaning of the calls: active = both siRNAs shift cisplatin killing the same way; inactive = no consistent shift, or siRNA harmful alone
# Shown is an unselected part of about 23,000 deposited reagents. Over the whole deposit, 455 (2%) got an active call. 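Active includes both protection and sensitisation; some change values fall well beyond the stated -50 to +50 range.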 Unmarked entries are inactive. Not all columns of the deposit are shown. Not stated in the record: the amount of reagent.
two-siRNA summed score (-2 to +2),mean protection from cisplatin (shift in death) (%),"protection from cisplatin (shift in death), siRNA C (%)",gene,PubChem SID
0,2,5.1,LZTFL1 (leucine zipper transcription factor like 1),SID131509331
0,2,7,SIX5 (SIX homeobox 5),SID131509333
0,6.9,2.2,RAB5IF (RAB5 interacting factor),SID131513682
0,5.1,2.8,QPCT (glutaminyl-peptide cyclotransferase),SID131512117
0,-0.2,-0.7,PLPP7 (phospholipid phosphatase 7 (inactive)),SID131507381
-1,-17.4,-25.1,LETMD1 (LETM1 domain containing 1),SID131500702
0,-3.8,-3.8,LOC400475,SID131505076
0,-8.4,-6.9,NKX2-3 (NK2 homeobox 3),SID131503694
0,-10.4,-10.7,ZNF416 (zinc finger protein 416),SID131503390
0,4.9,-4.1,LOC440066,SID131511892
0,3,9.4,ISL2 (ISL LIM homeobox 2),SID131510192
1,5.9,22.9,PTPN2 (protein tyrosine phosphatase non-receptor type 2),SID131519487
0,-6.3,-11.7,DCAF12 (DDB1 and CUL4 associated factor 12),SID131504166
-1,-20.1,-27,POU3F2 (POU class 3 homeobox 2),SID131500595
0,3.3,3.1,TRIR (telomerase RNA component interacting RNase),SID131510525
0,-8,-18,IDUA (alpha-L-iduronidase),SID131503745
0,4,6.3,ZFP36L2 (ZFP36 like 2 zinc finger CCCH-type),SID131511110
0,7.2,9.8,COL26A1 (collagen type XXVI alpha 1 chain),SID131513969
0,3.6,-6.7,OR4D1 (olfactory receptor family 4 subfamily D member 1),SID131510747
0,-2.9,-10.2,LOC441236,SID131505567
0,0.8,4.3,KYNU (kynureninase),SID131508228
1,3.3,-5.8,GCSH (glycine cleavage system protein H),SID131519169
1,11.6,3.1,WFDC9 (WAP four-disulfide core domain 9),SID131520950
1,3.6,-8.2,CYGB (cytoglobin),SID131519199
0,-1.2,-5.7,ANKRD46 (ankyrin repeat domain 46),SID131506617
0,30.2,28.9,LOC441502,SID131518833
0,10.6,-0.5,NOP10 (NOP10 ribonucleoprotein),SID131516304
0,9.2,13.7,LOC440318,SID131515440
0,21.8,9.7,LOC441778,SID131518568
1,8.5,2.4,TRAFD1 (TRAF-type zinc finger domain containing 1),SID131520059
-1,-14.6,-8.3,PARD6A (par-6 family cell polarity regulator alpha),SID131500893
1,8.9,24.4,TRIM49D1 (tripartite motif containing 49D1),SID131520161
0,15.1,-7.2,LOC388143,SID131517853
0,8,3.8,SUPT6H,SID131514596
0,-3.1,-2.4,ABCC5 (ATP binding cassette subfamily C member 5),SID131505425
0,-9.8,-9,ANKRD13C-DT (ANKRD13C divergent transcript),SID131503470
0,-1,0.3,ADGRG5 (adhesion G protein-coupled receptor G5),SID131506752
2 (active),17.3,14.9,IKBKG,SID131523026
0,-6.1,-4.8,GCG (glucagon),SID131504232
0,-3.1,-13,ADGRA3 (adhesion G protein-coupled receptor A3),SID131505433
0,16.9,13.1,RPL27 (ribosomal protein L27),SID131518157
0,4.4,7.7,NLRX1 (NLR family member X1),SID131511502
0,5.5,21.1,TBL1XR1 (TBL1X/Y related 1),SID131512494
0,2.4,-3.5,FUOM (fucose mutarotase),SID131509724
-1,-10.8,-18.3,NIPAL1 (NIPA like domain containing 1),SID131501284
0,-0.9,7.2,MRPL34 (mitochondrial ribosomal protein L34),SID131506807
0,-5.9,-3,KANSL2 (KAT8 regulatory NSL complex subunit 2),SID131504275
0,-7.1,-11.1,API5 (apoptosis inhibitor 5),SID131503934
0,0.2,5.5,LINC01226 (long independently transcribed non-coding RNA 1226),SID131507710
-1,-12.9,-14,ME3 (malic enzyme 3),SID131501052
0,2.6,-6.8,ME3 (malic enzyme 3),SID131509890
0,3.6,3.6,LOC401720,SID131510806
0,0.3,-9.5,PARP11 (poly(ADP-ribose) polymerase family member 11),SID131507770
1,6.9,17.1,SMARCA1 (SNF2 related chromatin remodeling ATPase 1),SID131519678
0,-15.1,-20.2,XRCC1 (X-ray repair cross complementing 1),SID131503040
0,17.5,18.5,LOC440448,SID131518239
0,3.9,8.3,LOC401165,SID131511032
